Measurements from publication PMC9647857.
These are yes or no findings as the source states them, for the method shown. Binding seen in cells or lysates may run through a third protein. Some results given as binding are weak or reduced against the parent protein; the word gives no strength. Blank lines part the entries; values can stand above or below the molecule they belong to.

Chains of the proteins cited; added tags and fusions are not shown.
UniProt Q13263: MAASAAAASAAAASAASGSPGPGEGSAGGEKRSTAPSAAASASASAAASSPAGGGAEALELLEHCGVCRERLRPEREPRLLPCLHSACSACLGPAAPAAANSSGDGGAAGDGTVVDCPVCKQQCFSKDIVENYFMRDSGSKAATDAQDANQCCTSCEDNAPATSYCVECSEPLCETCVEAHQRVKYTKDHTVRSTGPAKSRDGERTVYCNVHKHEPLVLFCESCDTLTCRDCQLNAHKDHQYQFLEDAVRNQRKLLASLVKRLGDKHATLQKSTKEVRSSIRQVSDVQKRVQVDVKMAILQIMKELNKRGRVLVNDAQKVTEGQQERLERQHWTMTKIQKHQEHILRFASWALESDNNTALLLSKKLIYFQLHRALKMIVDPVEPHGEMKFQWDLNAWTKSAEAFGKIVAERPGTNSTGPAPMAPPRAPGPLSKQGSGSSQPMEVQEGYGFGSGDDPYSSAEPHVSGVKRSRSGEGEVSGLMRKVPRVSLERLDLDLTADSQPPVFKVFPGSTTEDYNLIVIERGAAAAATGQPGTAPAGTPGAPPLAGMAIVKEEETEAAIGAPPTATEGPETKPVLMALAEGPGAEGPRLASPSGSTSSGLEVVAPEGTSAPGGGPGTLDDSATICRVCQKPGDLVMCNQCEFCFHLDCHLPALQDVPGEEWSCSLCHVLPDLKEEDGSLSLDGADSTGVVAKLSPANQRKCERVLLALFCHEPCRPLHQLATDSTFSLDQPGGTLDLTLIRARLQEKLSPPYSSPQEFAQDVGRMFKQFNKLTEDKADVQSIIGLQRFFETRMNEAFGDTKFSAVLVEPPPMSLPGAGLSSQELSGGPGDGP

How the values were obtained:
[1] = biological target: T1, CSDE1 (human (endogenous in HepG2 and SK-HEP-1)) (UniProt O75534); assay: co-IP; endogenous proteins; HepG2 and SK-HEP-1 lysates incubated with antibodies of CSDE1, TRIM28 or IgG at 4°C overnight, Dynabeads Protein G, NP-40 lysis buffer washes, Western blot; also in cells with stable ARHGAP5-AS1 knock-down (more TRIM28 with CSDE1) or overexpression (less TRIM28 with CSDE1)
T1 sequence: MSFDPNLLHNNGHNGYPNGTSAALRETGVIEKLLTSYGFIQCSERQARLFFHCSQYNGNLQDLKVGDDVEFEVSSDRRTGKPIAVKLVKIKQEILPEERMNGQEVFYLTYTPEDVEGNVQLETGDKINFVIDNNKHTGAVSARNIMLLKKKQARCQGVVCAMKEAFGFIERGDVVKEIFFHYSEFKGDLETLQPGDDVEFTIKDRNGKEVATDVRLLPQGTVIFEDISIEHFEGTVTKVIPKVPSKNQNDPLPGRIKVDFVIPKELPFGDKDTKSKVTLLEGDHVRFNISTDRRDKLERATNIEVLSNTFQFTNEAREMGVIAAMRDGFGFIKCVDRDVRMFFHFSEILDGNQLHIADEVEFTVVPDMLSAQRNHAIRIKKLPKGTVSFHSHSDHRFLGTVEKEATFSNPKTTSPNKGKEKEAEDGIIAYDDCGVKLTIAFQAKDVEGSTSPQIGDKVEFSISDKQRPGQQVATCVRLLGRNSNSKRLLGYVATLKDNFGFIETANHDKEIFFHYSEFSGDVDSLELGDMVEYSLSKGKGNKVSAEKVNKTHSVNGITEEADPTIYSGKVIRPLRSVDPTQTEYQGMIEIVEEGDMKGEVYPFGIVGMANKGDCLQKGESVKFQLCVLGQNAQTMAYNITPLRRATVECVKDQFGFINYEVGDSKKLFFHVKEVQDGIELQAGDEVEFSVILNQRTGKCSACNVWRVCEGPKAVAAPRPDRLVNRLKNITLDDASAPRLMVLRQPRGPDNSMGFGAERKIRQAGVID

[2] = biological target: TRIM28 (human (endogenous in HepG2 and SK-HEP-1)) (UniProt Q13263); assay: as above

- binding [1]: binds
Molecule: TRIM28 (from UniProt Q13263 1-835)

- binding [2]: binds
B1: CSDE1 (protein, UniProt O75534-2 1-767)
chain: T1 sequence
